PubChem BioAssay (EPA / NIEHS)
Several values for one entry are separate records, joined by “and”; a condition that tells them apart may be missing. Equal entries are not always repeated. Inconclusive results, whose numbers are uncertain, are shown with a selection of clear calls. A potency beside an inconclusive call is a rough fit, not a confirmed value. More than one record can exist for a structure, and the calls need not agree. Activity calls are given as the source filed them. How the source made its calls: active means hit-call score of the fitted dose curve at least 0.9, where 1 is the maximum; inconclusive means response in the unintended direction; inactive means score below 0.9.

Chains of the proteins cited; added tags and fusions are not shown.
UniProt P04637, whole entry, looked up: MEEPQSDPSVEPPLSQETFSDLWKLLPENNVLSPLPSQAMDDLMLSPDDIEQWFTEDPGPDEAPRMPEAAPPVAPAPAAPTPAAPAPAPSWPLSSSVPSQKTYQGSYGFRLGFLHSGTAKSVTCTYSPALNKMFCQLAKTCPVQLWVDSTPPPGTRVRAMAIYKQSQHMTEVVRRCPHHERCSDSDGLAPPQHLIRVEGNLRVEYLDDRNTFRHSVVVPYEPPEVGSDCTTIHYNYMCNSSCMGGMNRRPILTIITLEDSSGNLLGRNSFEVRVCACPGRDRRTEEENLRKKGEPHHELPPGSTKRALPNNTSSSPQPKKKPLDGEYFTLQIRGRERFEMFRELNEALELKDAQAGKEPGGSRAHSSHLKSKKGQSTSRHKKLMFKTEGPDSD

biological target: Cellular tumor antigen p53 (Homo sapiens) (UniProt P04637); test: TOX21_p53_BLA_p3_ratio: Tox21 HCT-116 p53 Agonism Beta-lactamase Assay, Ratio, Phase 3 (AID 2283596)
Source text: TOX21_p53_BLA_p3 is a cell-based, single-readout assay that uses HCT116, a human intestinal cell line, […] in a 1536-well plate.TOX21_p53_BLA_p3_ratio is an assay readout measuring reporter gene via receptor activity and designed using inducible reporter (beta lactamase induction) detected with GAL4 b-lactamase reporter gene. The signal is derived from the ratio of cleaved (ch2) to uncleaved (ch1) reporter gene substrate used as the measure of target activity.Data from the assay component TOX21_p53_BLA_p3_ratio was analyzed into 1 assay endpoint. This assay endpoint, TOX21_p53_BLA_p3_ratio, was analyzed in the positive analysis fitting direction relative to DMSO as the negative control and baseline of activity. Using a type of inducible reporter, gain-of-signal activity can be used to understand changes in the reporter gene as they relate to the gene TP53. Furthermore, this assay endpoint can be referred to as a primary readout, because this assay has produced multiple assay endpoints where this ratio serves a reporter gene function to understand target activity. To generalize the intended target to other relatable targets, this assay endpoint is annotated to the DNA binding intended target family, where the subfamily is tumor suppressor.
Thawing Method: Place 14 mL of pre-warmed thaw medium into a 15 mL of conical tub. Remove the vial of cells to be thawed from liquid nitrogen and thaw rapidly by placing at 37C in a water bath with gentle agitation for 1-2 minutes. Decontaminate the vial by wiping with 70% ethanol before opening in a biological safety cabinet. Transfer the vial contents drop-wise into 14 mL of thaw medium in a sterile 15-mL conical tub. Centrifuge cells at 900 rpm for 4 minutes and resuspend in thaw medium. Transfer contents to the T75 tissue culture flask containing Thaw Medium and place flask in a humidified 37C/5% CO2 incubator. Switch to growth medium at first passage.Propagation Method: Aspirate medium, rinse once in DPBS, add 0.25% Trypsin/EDTA and swirl to coat the cell evenly. Add an equal volume of Growth Medium to inactivate Trypsin after 2-3 minutes incubation at 37C. Centrifuge cells at 900 rpm for 4 minutes and resuspend in growth medium. Cell should be passage or fed at least twice a week.Assay Protocol: Harvest cells from culture in growth medium and resuspend in assay medium. 2.2 Dispense 4000 cells/5 uL/well into 1536-well black/clear bottom plates using a Multidrop dispenser. After the cells were incubated at 37C for 5 hours, 23 nL of compounds dissolved in DMSO were transferred to the assay plate by a PinTool resulting in a 217-fold dilution. Incubate the plates for 16 hours at 37C, 5% CO2. Add 1 uL of 6X LiveBLAzer FRET B/G (CCF4-AM) Substrate Mixture to each well using a BioRAPTR dispenser and incubate the plates at room temperature for 2 hours. Measure fluorescence intensity at 460 and 530 nm emission and 405 nm excitation by an Envision detector. Data is expressed as the ratio of 460nm/530nm emissions. Add 4 uL of Cell-titer Glo to each well using BioRAPTR and incubate the plates at room temperature for 2 hours. Measure fluorescence intensity by a VewLux plate reader.

Row | Compound | AC50 | outcome
1 | c1cc(N(CC2CO2)CC2CO2)ccc1Cc1ccc(N(CC2CO2)CC2CO2)cc1 (stereo unspecified) | active: 81.6 µM | –
2 | C=CC(=O)OCCCCCCCCCC | – | inactive
3 | CCC(C)C1CCCCC1=O (stereo unspecified) | inconclusive: 46.1 µM | –
4 | C[C@]12CCC(=O)C=C1CC[C@@H]1[C@@H]2C(=O)C[C@@]2(C)[C@H]1CC[C@]2(O)C(=O)CO | inconclusive: 23 µM | –
5 | N#CCCCC(C#N)CCC#N (stereo unspecified) | inconclusive: 46.1 µM | –
6 | CC(C)(C)c1ccc(O)c(C(C)(C)C)c1 | active: 77.4 µM and active: 79.4 µM | –
7 | CCN=C1C=CC(=C(c2ccc(N(CC)CC)cc2)c2ccc(N(CC)CC)cc2)c2ccccc21 | active: 2.8 µM | –
8 | C[Si]1(C)O[Si](C)(C)O[Si](C)(C)O[Si](C)(C)O1 | inconclusive: 46.1 µM and inconclusive: 46.5 µM | –
9 | CC(C)C=O | inconclusive: 46.9 µM | –
10 | NC(=O)c1ccc(N)cc1 | inconclusive: 82.1 µM | –
11 | Clc1ccc(Cl)c(Cl)c1Cl | inconclusive: 84.2 µM | –
12 | O=C(CS)OCCOC(=O)CS | active: 39.3 µM | –
13 | COC(C)(C)CCO | inconclusive: 46.1 µM | –
14 | CC(C)CCCCCCCOC(=O)CCCCC(=O)OCCCCCCCC(C)C | inconclusive: 46.1 µM | –
15 | CSc1ccc(Cl)cc1 | inconclusive: 45.8 µM | inactive
16 | CC(=O)OCCc1ccccc1 | inconclusive: 46.1 µM | –
17 | Nc1ccc(NCCO)c([N+](=O)[O-])c1 | inconclusive: 46.1 µM | –
18 | CNC[C@H](O)[C@@H](O)[C@H](O)[C@H](O)CO | inconclusive: 23 µM | inactive
19 | CCCCCCCCCO | – | inactive

Filtered by structure: the compounds so far with sulfur.
Row | Compound | AC50 | outcome
12 | O=C(CS)OCCOC(=O)CS | active: 39.3 µM | –
15 | CSc1ccc(Cl)cc1 | inconclusive: 45.8 µM | inactive

(further entries)

Row | Compound | AC50 | outcome
20 | CCCCCCCCCCOC(=O)c1ccccc1C(=O)OCCCCCCCC | inconclusive: 46.1 µM | –
21 | c1cc(-c2ccncc2)ccn1 | – | inactive
22 | CCOC(=O)C(C#N)=C(c1ccccc1)c1ccccc1 | inconclusive: 32.5 µM | –
23 | CCC(=O)Oc1ccc(/C(CC)=C(\CC)c2ccc(OC(=O)CC)cc2)cc1 | active: 16.4 µM | –
25 | CCC1(c2ccccc2)C(=O)NCNC1=O | inconclusive: 23 µM | –
26 | CCCCCC1CCCC(=O)O1 (stereo unspecified) | inconclusive: 46.1 µM | –
27 | CC(C)C1CCC(O)CC1 (stereo unspecified) | inconclusive: 46.1 µM | –
28 | CCCCOCCOCCOC(C)=O | – | inactive
29 | CCCCCCCCCCCCCCCCCC(=O)OCC(CC)CCCC (stereo unspecified) | inconclusive: 46.1 µM | –
30 | CCCCNC(N)=O | inconclusive: 46.1 µM | –
31 | C[N+](C)(C)CCCCCC[N+](C)(C)C | inconclusive: 23 µM | –
33 | CCCCCCCCCCCCN1CCCC1=O | active: 67.1 µM | –
34 | CCCCCCCCCCC1CO1 (stereo unspecified) | – | inactive
35 | O=C(Nc1ccc([N+](=O)[O-])cc1Cl)c1cc(Cl)ccc1O | active: 299 nM and active: 230 nM | –
36 | C=C1CC/C=C(\C)CC[C@@H]2[C@@H]1CC2(C)C | inconclusive: 46.1 µM | –
37 | CCCCC(CC)COCCO (stereo unspecified) | – | inactive
38 | O=C(c1ccc(O)cc1)c1ccc(O)cc1O | active: 68.5 µM | inactive
